Assay results as given in publication PMC9656801 (Molecules, 2022).

Test: general procedure: Fmoc solid-phase peptide synthesis; 2-chlorotrityl chloride resin (2-CTC), 0.8 mmol/g loading; HBTU/DIPEA (primary amines), HATU/DIPEA (N-methyl amino acids); cyclisation HBTU
Details: for crude HPLC purity / crude yield: whole synthesis, scale of the general procedure 500 mg resin; for crude HPLC purity / final HPLC purity: 220 nm; for crude HPLC purity / final HPLC purity / cyclisation yield: trifluoroacetate salts (linear peptides); for crude yield: TFA salt; for final HPLC purity / cyclisation yield: cyclisation step; for cyclisation yield: on linear precursor

Row | Substance | crude HPLC purity | crude yield | final HPLC purity | cyclisation yield
1 | [dNMeF]AF[Sar] | 99% | 99% |  | 
2 | ALF[Sar] | 94% | 60% |  | 
3 | cyclo([dNMeF]AF[Sar]) |  |  | 91.9% | 17%
4 | Cyclo [Ala-Leu-D-Phe-N-MeGly] |  |  | 95.2% | 76%
5 | AL[dF]G |  | 100% |  | 
6 | cyclo(AL[NMeF][Sar]) |  |  | 92.8% | 33%
7 | cyclo([NMeA]LFG) |  |  | 90.7% | 48%
8 | F[Sar]C(Bn)[Sar] | 79% | 75% |  | 
9 | cyclo([NMeA]LF[Sar]) |  |  | 95.5% | 38%
10 | AL[NMeF][Sar] | 97% | 100% |  | 
11 | cyclo(F[Sar]C(Bn)[Sar]) |  |  | 94.3% | 54%
12 | AL[dNMeF]G | 99% | 100% |  | 
13 | [NMeA]L[dF]G | 96% | 100% |  | 
14 | cyclo([NMeA]L[NMeF]G) |  |  | 95.8% | 47%
15 | cyclo(ALF[Sar]) |  |  | 97.6% | 40%
16 | [NMeA]LF[Sar] | 94% | 44% |  | 
17 | AL[dF][Sar] | 90% | 62% |  | 
18 | cyclo(AL[dNMeF]G) |  |  | 98.7% | 66%
19 | cyclo(AL[dF]G) |  |  | 90.1% | 5%
20 | [NMeA]F[NMeF]G | 98% | 97% |  | 
21 | [NMeA]L[NMeF]G | 91% | 100% |  | 
22 | cyclo([NMeA]F[NMeF]G) |  |  | 95.6% | 86%
23 | [NMeA]LFG | 93% | 100% |  | 
24 | cyclo([NMeA]L[dF]G) |  |  | 91.7% | 67%

Non-standard residues stand in square brackets, D forms with d. No end group written: not given here. *: point of attachment. NMeF = CN[C@@H](Cc1ccccc1)C(=O)O; dNMeF = CN[C@H](Cc1ccccc1)C(=O)O; NMeA = CN[C@@H](C)C(=O)O; Bn = c1ccc(C*)cc1; Sar = CNCC(=O)O
